These are yes or no findings as the source states them, for the method shown. Binding calls can cover weak binding; strength is not graded here.
Biological target: CTD of recombinant HSP90β (UniProt P08238)
Assay: AlphaScreen or HTRF; TR-FRET, HSP90 CTD TR-FRET assay kit (50289, BPS Bioscience); PPID-GST-tag and HSP90β CTD, 2 h at room temperature; ratio 665 nm/620 nm; DMSO as positive control (100% activity), no PPID as negative control; VWK147 (1 mM) and coumermycin A1 as inhibitors; both purified

Sequences of proteins named here, by UniProt entry; tags and fusion partners are left off. A change or cut given only in a name is not applied to a line headed by its entry.
UniProt P08238: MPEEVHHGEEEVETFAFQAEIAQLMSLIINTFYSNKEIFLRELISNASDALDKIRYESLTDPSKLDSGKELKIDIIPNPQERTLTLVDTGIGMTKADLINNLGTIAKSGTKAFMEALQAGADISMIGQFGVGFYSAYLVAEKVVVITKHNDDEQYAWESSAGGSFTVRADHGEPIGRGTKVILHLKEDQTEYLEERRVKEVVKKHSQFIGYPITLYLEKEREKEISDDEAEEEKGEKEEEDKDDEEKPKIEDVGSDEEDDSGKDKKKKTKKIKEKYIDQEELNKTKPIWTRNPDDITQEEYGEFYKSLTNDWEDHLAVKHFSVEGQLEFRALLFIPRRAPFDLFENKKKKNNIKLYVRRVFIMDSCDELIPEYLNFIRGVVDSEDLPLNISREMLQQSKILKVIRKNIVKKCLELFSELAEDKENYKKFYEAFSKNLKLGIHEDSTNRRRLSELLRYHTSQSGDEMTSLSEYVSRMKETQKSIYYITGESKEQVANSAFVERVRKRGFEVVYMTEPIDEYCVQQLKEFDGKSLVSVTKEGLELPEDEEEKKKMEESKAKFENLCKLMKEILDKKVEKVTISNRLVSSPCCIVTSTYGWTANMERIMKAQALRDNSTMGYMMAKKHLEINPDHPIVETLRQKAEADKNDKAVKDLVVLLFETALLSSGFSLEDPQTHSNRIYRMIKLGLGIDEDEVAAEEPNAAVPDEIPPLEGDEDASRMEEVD
UniProt Q08752: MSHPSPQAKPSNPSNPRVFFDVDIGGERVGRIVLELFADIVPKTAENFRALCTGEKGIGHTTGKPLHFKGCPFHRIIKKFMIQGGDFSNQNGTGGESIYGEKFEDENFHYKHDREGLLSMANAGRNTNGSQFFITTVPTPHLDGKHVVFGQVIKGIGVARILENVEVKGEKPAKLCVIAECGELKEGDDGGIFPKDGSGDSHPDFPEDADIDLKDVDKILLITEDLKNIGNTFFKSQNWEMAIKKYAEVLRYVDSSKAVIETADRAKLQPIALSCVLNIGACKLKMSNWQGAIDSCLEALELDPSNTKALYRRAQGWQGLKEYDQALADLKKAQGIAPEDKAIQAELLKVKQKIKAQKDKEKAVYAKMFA

binding: binds
Substance: Peptidyl prolyl isomerase D (PPID), GST-tagged (from UniProt Q08752 1-370)

Reference: publication PMC12848304, “Small-molecule inhibitor of C‑terminal HSP90 dimerization modulates autophagy and functions synergistically with mTOR inhibition to kill cisplatin-resistant cancer cells” (Cell Death & Disease, 2025)
